Data from patent US20110118118A1, “HERBICIDALLY ACTIVE PHENYL-SUBSTITUTED PYRIDAZINONES” (BAYER CROPSCIENCE AG, priority 2009, published 2011).
Some of these results come from one statement about several compounds together.

How the values were obtained:
Assay type in all cases: in vivo
Lolium multiflorum = assay: Pre-emergence herbicidal action against harmful plants; settings: application rate 320 g/ha, visual assessment after 3 weeks vs untreated controls
Stellaria media = assay: as above; settings: application rate 320 g/ha, visual assessment after 3 weeks vs untreated controls
Amaranthus retroflexus [1] = assay: as above; settings: application rate 320 g/ha, visual assessment after 3 weeks vs untreated controls
Echinocloa crus galli = assay: as above; settings: application rate 320 g/ha, visual assessment after 3 weeks vs untreated controls
Pharbitis purpureum = assay: Post-emergence herbicidal action against harmful plants; settings: application rate 320 g/ha, rated visually after about 3 weeks vs untreated controls
Amaranthus retroflexus [2] = assay: as above; settings: application rate 320 g/ha, rated visually after about 3 weeks vs untreated controls
Alopecurus myosuroides = assay: as above; settings: application rate 320 g/ha, rated visually after about 3 weeks vs untreated controls
Viola tricolor = assay: as above; settings: application rate 320 g/ha, rated visually after about 3 weeks vs untreated controls
Matricaria inodora = assay: as above; settings: application rate 320 g/ha, rated visually after about 3 weeks vs untreated controls

| SMILES | herbicidal activity in percent against Lolium multiflorum (Lolium multiflorum) | herbicidal activity in percent against Stellaria media (Stellaria media) | herbicidal activity in percent against Amaranthus retroflexus (Amaranthus retroflexus [1]) | herbicidal activity in percent against Echinocloa crus galli (Echinocloa crus galli) | herbicidal activity in percent against Pharbitis purpureum (Pharbitis purpureum) | herbicidal activity in percent against Amaranthus retroflexus (Amaranthus retroflexus [2]) | herbicidal activity in percent against Alopecurus myosuroides (Alopecurus myosuroides) | herbicidal activity in percent against Viola tricolor (Viola tricolor) | herbicidal activity in percent against Matricaria inodora (Matricaria inodora) |
| --- | --- | --- | --- | --- | --- | --- | --- | --- | --- |
| CCc1cc(Cl)cc(Br)c1-c1c(O)c(C)nn(C)c1=O [I-1-a-3] | at least 80% | at least 80% |  |  |  |  |  |  |  |
| CCc1cc(Cl)cc(Br)c1-c1c(OC(=O)C(C)C)c(C)nn(C)c1=O [I-1-b-2] | at least 80% | at least 90% | at least 90% | at least 80% |  |  |  |  |  |
| CCOC(=O)Oc1c(C)nn(C)c(=O)c1-c1c(Cl)cc(Br)cc1CC [I-1-c-2] | at least 80% | at least 90% | at least 90% | at least 80% | at least 90% | at least 90% | at least 90% | at least 90% | at least 90% |
| CCOC(=O)Oc1c(C)nn(C)c(=O)c1-c1c(Br)cc(Cl)cc1CC [I-1-c-3] | at least 80% | at least 80% |  |  | at least 90% | at least 90% | at least 90% | at least 90% | at least 90% |
